Test results as given in publication PMC7271947.
No constants are given. Whether binding was seen depends on the method and setting.

By UniProt entry, the sequences of proteins in these tests, tags left out. Where a name states a change or a piece, a line headed by the entry shows the natural chain unless it says otherwise.
UniProt Q00266: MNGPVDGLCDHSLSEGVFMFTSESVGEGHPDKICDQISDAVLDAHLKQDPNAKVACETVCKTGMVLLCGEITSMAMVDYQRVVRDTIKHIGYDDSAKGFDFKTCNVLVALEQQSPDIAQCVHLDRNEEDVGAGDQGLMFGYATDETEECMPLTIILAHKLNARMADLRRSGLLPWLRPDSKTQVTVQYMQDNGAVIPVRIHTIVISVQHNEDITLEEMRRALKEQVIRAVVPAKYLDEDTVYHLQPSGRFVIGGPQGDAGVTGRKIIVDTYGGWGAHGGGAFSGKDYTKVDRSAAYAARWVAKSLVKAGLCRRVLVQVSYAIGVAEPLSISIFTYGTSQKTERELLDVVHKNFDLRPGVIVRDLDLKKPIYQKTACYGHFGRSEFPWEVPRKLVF

Target: MATα1 R264H mutant (human) (UniProt Q00266)
Experiment: SEC + native gel or EMSA; MATα1 incubated with MATβV1 or MATβV2 in a 1:2 ratio for 1 h at 4°C in 50 mM HEPES pH 7.5, 10 mM MgCl2, 50 mM KCl; Superdex 200 10/300 in 25 mM HEPES pH 7.5, 200 mM NaCl, 1 mM MgCl2, 5 mM KCl, 1 mM TCEP; native PAGE and SDS-PAGE of the complex fraction; both purified

B1: MATβV2 (regulatory subunit MATβ, isoform V2) (protein, UniProt Q9NZL9-2 1-323)
chain: MPEMPEDMEQEEVNIPNRRVLVTGATGLLGRAVHKEFQQNNWHAVGCGFRRARPKFEQVNLLDSNAVHHIIHDFQPHVIVHCAAERRPDVVENQPDAASQLNVDASGNLAKEAAAVGAFLIYISSDYVFDGTNPPYREEDIPAPLNLYGKTKLDGEKAVLENNLGAAVLRIPILYGEVEKLEESAVTVMFDKVQFSNKSANMDHWQQRFPTHVKDVATVCRQLAEKRMLDPSIKGTFHWSGNEQMTKYEMACAIADAFNLPSSHLRPITDSPVLGAQRPRNAQLDCSKLETLGIGQRTPFRIGIKESLWPFLIDKRWRQTVFH
  binding: no binding
